Reference: PMC6286383

B1: ATF7IP (protein, UniProt Q7TT18 1-1306)
chain: MDSVEEPQKKVFKARKTMRASDRQQLDAVHRVKGELLRADGKLLNGSHENGDLDPTSPLENTDCIQDREEVNGIDGICFQSEESTTEWKETPCMPNVAVKNKQEDLNSEALSPSITCDLSSRVTTEPGSGSPASDNPGCGTPVSDNPASDNPASDNPASDNPDSGDLAAGELATTVQATGDSACEEPPSSDPSSSDPTSSEPSSSEPTCSEPISGDPVSEEAASHDLVSGDSTCSEPVSGEPVSHEAASSEPATSEPASDEPVARVVAACELAPGESALDDCAPSGDSQSDEPPSSEDSLPRSVCSGLASGELTPGELSVEPATDTVKPSSSAVCEAGPDPDKTEPSSNNSDDCPGKSEDDEHLDQIQSKDSCDEGNKVNSNVVEKEEPLETHSAIICSDLPPENTTKIAEDPIAEPALEEEAISSSMEVDQSEKDEHKSPAEPVAAVSEDPAEEDKEDTVVDNTDSMETDEIIPILEKLAPTEDELSCFSKASLLPVETSQDLEDKMEGSFGSPSKQESSENLPKEAFLVLSDEEDLSCGKDESEAVAQSKMSTPEGEKSEKDGKAEEEERVPAEEQPPVRNEFSRRKRSKSEDMDSVESKRRRYMDEEYEAEFQVKITAKGDINQKLQKVIQWLLQEKLCALQCAVFDKTLAELKTRVEKIECNKRHKAVLTELQAKIARLTKRFGAAKDDLKKRQESPPNPPISPGKPANDTNSNNNMTYRNAGTVRQLLESKRNVSEGPPPSFQTPVNTVSSASHATSTAVVSSQPKLQTSATSGSLPAAPLLPAPSTATVVATTQVPSGTPQPTISLQPLPVILHVPVAVTSQPQLLQSHPGTLVTNQPSGNVEFISVQSQPTVSGLTKNPVSLPPLPNPTKPNIPSVPSPSSIQRNSSTTAAPLGTTLAVQAVPTAHSIVQATRTSLPTVGPSGLYSSSSSRGPIQMKIPISTFSPPSSAEQNSSATPRIVTENQTNKTVDSSINKKAADSTSQSGKASSSDSSGVIDLTMDDEESGTTQDPKKISPPSSSTVSTSQPMSRPLQPILPAPPLQPSGVPTSGPSQATIHVLPTAPTTVNVTHRPVTQVTTRLPVPRAPANHQVVYTTLPAPTTQAPLRGTVMQAPAVRQVNPQNSVTVRVPQTTTYVVNNGLTLGSAGPQLTVHHRPPQVHNEPPRPLHPAPLPEAPQPQRLPPEAASTSLPQKPHLKLARVQSQNGIVLSWSVLEVDRSCATVDSYHLYAYHEEPSATVPSQWKKIGEVKALPLPMACTLTQFVSGSKYYFAVRAKDIYGRFGPFCDPQSTDVISSSQNS
B2: ATF7IP2 (protein, UniProt Q3UL97 1-452)
chain: MESPDRKRQKVLKAKKTMPTSYQKQLEILNKSTNVEAPKTTVGTNIPNGHNQKMFSKNKENVKVMKVSEQINENACGALERHTALLEQVKHWIRQEICMINCNLFDKKLNELNERIGKTQCKSRHEAIAGELFVKIRRLQKRIKTVLSSQRNCLEPNTLPSNTVCKVTDSEAMNLNVTQKSVKSRSKRISSVNHTPLNSSEKAGRKTNLPSTCVEFASESNTDDVMLISVKNSNLTTSITSEQTEIRKNTSRNLSNSPNSMIKVGPVEKKFDFVIDLTREGPSNYSIESPSFTLKSTSKAVLRSKEIIPVAENGNEGFGSFEHLPPLPEPPAPLPEMADKIKDTLPPQKPELKVKWVLRPTSIALTWNIPKVNPNCAPVESYHLFLYYENSDHLTWKKIAEIKALPLPMACTLSQNLASTKYYFAVQSKDIFGRYGPFCNIKSIPRFSENLT

Molecular target: γH2AX (histone H2AX phosphorylated at serine-139) (mouse (endogenous in testis)) (UniProt P27661)
Experiment: affinity purification with mass spectrometry; IP-MS on P15 wild-type mouse testis with γH2AX and SETDB1 as bait; LFQ enrichment against control IgG-IP (Welch's t-test, FDR 0.01)

Binder | binding
B1 | no binding
B2 | no binding

No constants are given. Whether binding was seen depends on the method and setting. Binding seen in cells or lysates may run through a third protein. A yes stands for co-enrichment or nearness to the bait. Other partners may have been found. No binding means not detected with the bait.
